Test results published in US11230535B2, “CFTR regulators and methods of use thereof” (THE REGENTS OF THE UNIVERSITY OF CALIFORNIA, priority 2015, dated 2022).
At least one structure is not confirmed: it was looked up by name or label, or the drawing left a doubt.

System: mice
Experiment: Tear secretion / tear volume in mice (phenol red thread)
Type: in vivo, mouse
Conditions: single topical dose
Experimental: (§1) To measure unstimulated tear production, phenol red threads (Zone-Quick, Oasis Medical, Glendora, Calif., USA) were placed for 10 s in the lateral canthi of isofluorane-anesthetized mice using jewelers' forceps. Tear volume was measured as the length of thread wetting, as visualized under a dissecting microscope. Serial measurements were used to evaluate compound pharmacodynamics after application of 2-μL drops of compound formulations (50-100 μM compound in PBS containing 0.5% polysorbate and 0.5% DMSO) comparing to vehicle.
as §1, with “Tear secretion. To” for “To”, “2-[…]L” for “2-μL”
Tear volume. Tear volume was measured using phenol red threads (Zone-Quick, Oasis Medical, Glendora, Calif.) as described. […] Tear volume was determined from the length of thread wetting as visualized under a dissecting microscope. […]

C=C[C@@]1(C)CC(=O)[C@]2(O)[C@@]3(C)[C@@H](O)CCC(C)(C)[C@@H]3[C@H](O)[C@H](OC(C)=O)[C@@]2(C)O1 [forskolin, reference compound]
basal tear secretion at 30 min (30 min): substantially increased
effect on tear secretion after 2 hours (after 2 hours): undetectable
